Experimental data: PubChem BioAssay AID1508597 (Cure First, 2020)

Assay: 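Genes whose silencing sensitises or protects ovarian cancer cells against rucaparib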 (primary screen)
Cell system: human ovarian carcinoma lines grown from tumours: OCI-P5x (papillary serous) and OCI-C5x (clear cell)
Knock-down reagent: siRNA pool against human genes, 1.25 pmol siRNA per well
Time to read-out: 72 h or 96 h, depending on the cell culture
Conditions: rucaparib 20 µM (about IC30) or vehicle, present until read-out
Rucaparib or vehicle: Rucaparib
Cell line: OCI-P5x (serous)
Detection: 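Luminescent ATP-based viability assay read 72 or 96 h after transfection, depending on culture, given as normalised percent viability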
Scale: viability, normalised: higher = more viable cells remaining
Call rule: 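Active when normalised viability falls below 80 percent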
Calls: active = viability under 80%; inactive = viability 80% or more
This is an unselected part of the about 2,100 reagents, in one setting of the screen. 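Calls flag viability under 80% in either arm, not effects specific to rucaparib; the reference for percent is not stated.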 The record does not give: the 100% reference.

For DHX32, technical replicate 1, the values are viability, normalised (%) = 84.7; inactive.
With DHX32, technical replicate 2, the values are viability, normalised (%) = 82; inactive.
DHX32, technical replicate 3 scored viability, normalised (%) = 64.9; active.
PRKACA, technical replicate 1 scored viability, normalised (%) = 75.6; active.
PRKACA, technical replicate 2 scored viability, normalised (%) = 91.7; inactive.
For PRKACA, technical replicate 3, the values are viability, normalised (%) = 69.5; active.
TAF5, technical replicate 1 gave viability, normalised (%) = 53.4; active.
With TAF5, technical replicate 2, the entry reads viability, normalised (%) = 63.7; active.
TAF5, technical replicate 3 gave viability, normalised (%) = 52.8; active.
With NCOR2, technical replicate 1, the entry reads viability, normalised (%) = 42.3; active.
For NCOR2, technical replicate 2 the deposit lists viability, normalised (%) = 44.5; active.
NCOR2, technical replicate 3 gave viability, normalised (%) = 32.9; active.
